# Drug screen on melanoma cell lines: apoptosis marker

From a melanoma drug combination screen (doi:10.1371/journal.pone.0140310); values rounded.

Drugs:
decitabine, 0.5 µM: Nc1ncn([C@H]2C[C@H](O)[C@@H](CO)O2)c(=O)n1
JZL184, 5 µM: O=C(Oc1ccc([N+](=O)[O-])cc1)N1CCC(C(O)(c2ccc3c(c2)OCO3)c2ccc3c(c2)OCO3)CC1
CX-4945, 2 µM: O=C(O)c1ccc2c(c1)nc(Nc1cccc(Cl)c1)c1ccncc12
LFM-A13, 10 µM: C/C(O)=C(\C#N)C(=O)Nc1cc(Br)ccc1Br
vismodegib, 5 µM: CS(=O)(=O)c1ccc(C(=O)Nc2ccc(Cl)c(-c3ccccn3)c2)c(Cl)c1
CP-690550, 5 µM: C[C@@H]1CCN(C(=O)CC#N)C[C@@H]1N(C)c1ncnc2[nH]ccc12
ABT-263, 2 µM: CC1(C)CCC(c2ccc(Cl)cc2)=C(CN2CCN(c3ccc(C(=O)NS(=O)(=O)c4ccc(N[C@H](CCN5CCOCC5)CSc5ccccc5)c(S(=O)(=O)C(F)(F)F)c4)cc3)CC2)C1
docetaxel, 0.0005 µM: CC(=O)O[C@@]12CO[C@@H]1C[C@H](O)[C@@]1(C)C(=O)[C@H](O)C3=C(C)[C@@H](OC(=O)[C@H](O)[C@@H](NC(=O)OC(C)(C)C)c4ccccc4)C[C@@](O)([C@@H](OC(=O)c4ccccc4)[C@H]21)C3(C)C
crizotinib, 1 µM: C[C@@H](Oc1cc(-c2cnn(C3CCNCC3)c2)cnc1N)c1c(Cl)ccc(F)c1Cl
vatalanib, 10 µM: Clc1ccc(Nc2nnc(Cc3ccncc3)c3ccccc23)cc1
embelin, 6 µM: CCCCCCCCCCCC1=C(O)C(=O)C=C(O)C1=O
temozolomide, 10 µM: Cn1nnc2c(C(N)=O)ncn2c1=O
indole-3-carbinol, 4 µM: OCc1c[nH]c2ccccc12

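The test systems are human melanoma cell lines, treated with a pair of drugs for 72 h and then stained and imaged. Values are the share of nuclei positive for cleaved PARP as a percentage of the same share in the DMSO control: 100 is the control level, higher means more apoptosis. Every drug was used at one fixed concentration, the higher of two screened. These are primary screening values without error estimates. The marker varies much from line to line, for technical or biological reasons.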 This is part of the screen, not chosen by result. An entry leaves out what has no value listed here. A dash means that no value is listed here.

Drugs,UACC-62,COLO 792,G-361,MEL-HO,WM451Lu,IST-MEL1,SK-MEL-28,COLO 800,SK-MEL-5,WM3526,MeWo,A2058,501mel,RVH-421,LOX IMVI
vatalanib + LFM-A13,94.4,145,115,68.2,160,153,126,281,83.3,101,132,156,130,93.5,111
docetaxel + embelin,450,1380,2480,262,3350,148,644,379,613,1850,418,3730,702,173,143
decitabine + CX-4945,227,149,197,119,98.6,45.1,69.3,99.5,372,196,377,313,-,63.4,184
temozolomide + vatalanib,453,340,91.9,59.8,214,160,1530,156,28.2,124,66.5,507,-,269,80.0
ABT-263 + vatalanib,261,8800,597,308,219,418,758,205,438,593,372,170,-,344,460
CP-690550 + docetaxel,178,443,645,149,471,275,217,303,591,1250,720,2540,-,150,126
decitabine + indole-3-carbinol,162,154,90.5,175,75.5,369,135,79.7,70.5,26.7,481,194,-,129,194
docetaxel + crizotinib,170,487,591,83.5,330,315,377,475,675,1050,609,1400,-,114,134
docetaxel + vismodegib,558,945,1220,70.3,717,372,400,143,651,1570,826,1130,-,351,160
CP-690550 + LFM-A13,40.4,90.1,59.9,51.2,15.7,130,57.8,248,91.9,52.1,65.0,73.7,39.1,107,144
ABT-263 + CP-690550,95.7,768,162,96.4,140,186,349,102,189,315,97.7,164,-,76.1,172
ABT-263 + temozolomide,304,453,187,122,85.5,190,285,147,270,272,214,685,-,348,249
CP-690550 + crizotinib,113,90.8,83.5,66.1,142,100,135,103,163,132,22.4,79.3,-,186,38.0
CX-4945 + CP-690550,124,276,147,98.4,83.7,59.8,23.0,69.7,105,148,126,199,-,48.5,159
ABT-263 + crizotinib,183,963,182,270,49.3,252,575,174,442,307,204,174,-,95.4,178
CX-4945 + vismodegib,230,105,159,132,115,69.6,53.3,96.2,164,427,52.3,175,-,71.6,284
indole-3-carbinol + temozolomide,195,106,162,39.4,76.3,30.7,329,115,74.7,147,101,541,-,62.2,110
decitabine + JZL184,283,92.5,122,76.8,123,255,84.3,65.8,165,106,295,178,47.0,41.7,126
CX-4945 + embelin,225,150,139,190,65.7,265,54.3,30.3,54.4,184,58.5,214,85.6,136,122
CP-690550 + vatalanib,160,181,147,103,43.7,66.9,145,228,120,267,172,174,-,103,591
indole-3-carbinol + embelin,153,573,1480,70.8,128,115,129,112,35.4,80.8,98.9,73.0,351,163,92.7
vatalanib + docetaxel,295,576,648,214,292,138,1050,96.7,1260,1000,556,1830,-,160,204

For reference, 2 entries once more:

{"drugs": "CP-690550 + docetaxel", "UACC-62": 178, "COLO 792": 443, "G-361": 645, "MEL-HO": 149, "WM451Lu": 471, "IST-MEL1": 275, "SK-MEL-28": 217, "COLO 800": 303, "SK-MEL-5": 591, "WM3526": 1250, "MeWo": 720, "A2058": 2540, "RVH-421": 150, "LOX IMVI": 126}
{"drugs": "indole-3-carbinol + temozolomide", "UACC-62": 195, "COLO 792": 106, "G-361": 162, "MEL-HO": 39.4, "WM451Lu": 76.3, "IST-MEL1": 30.7, "SK-MEL-28": 329, "COLO 800": 115, "SK-MEL-5": 74.7, "WM3526": 147, "MeWo": 101, "A2058": 541, "RVH-421": 62.2, "LOX IMVI": 110}